From US7687473B2, “5-amino-4-imidazolecarboxamide riboside and its nucleobase as potentiators of antifolate transport and metabolism” (Health Research, Inc., priority 2005, dated 2010)
Like-named read-outs stand apart in the source and are kept apart here.

Test system: CCRF-CEM cells
Test: Effect of protein kinase inhibitors on [3H]MTX uptake
Format: cell-based
Details: Homo sapiens, 30 min preincubation, HEPES-buffered salts solution
From the text: To determine whether protein phosphorylation is involved in the mechanism of Z potentiation, we began studies with a series of protein kinase (PK) inhibitors (PKI).

Structure (SMILES): CN[C@@H]1C[C@H]2O[C@@](C)([C@@H]1OC)n1c3ccccc3c3c4c(c5c6ccccc6n2c5c31)C(=O)NC4 [Staurosporine, staurosporine]
- inhibition at 10 µM (read-out: Inhibition of 30 min accumulation +TMTX): 15%
- inhibition at 10 µM (read-out: Inhibition of 30 min accumulation +TMTX+Z): 8%
